In assay [1] the target is inosine monophosphate dehydrogenase 2 (IMPDH2), endogenous (human (endogenous in KYSE450, KYSE30 and KYSE150)) (UniProt P12268). Description: co-IP; endogenous IP: RIPA lysate shaken with the indicated antibody (1 uL) and protein A/G beads (60 uL) at 4 °C overnight, five washes with NET-NW buffer, Western blot.
Assay [2] concerns the target Myc-IMPDH2 (UniProt P12268). Description: co-IP; external (exogenous) IP: RIPA lysate of transfected cells with tag beads (30 uL) in NET-NW buffer, five washes with NET-NW buffer, Western blot.
In assay [3] the target is Flag-USP5 (UniProt P45974). The description is as above.
Assay [4] has as its target ubiquitin-specific protease 5 (USP5), endogenous (human (endogenous in KYSE450 and KYSE30)) (UniProt P45974). Description: co-IP; endogenous IP: RIPA lysate shaken with the indicated antibody (1 uL) and protein A/G beads (60 uL) at 4 °C overnight, five washes with NET-NW buffer, Western blot.

Sequences of proteins named here, by UniProt entry; tags and fusion partners are left off.
UniProt P45974: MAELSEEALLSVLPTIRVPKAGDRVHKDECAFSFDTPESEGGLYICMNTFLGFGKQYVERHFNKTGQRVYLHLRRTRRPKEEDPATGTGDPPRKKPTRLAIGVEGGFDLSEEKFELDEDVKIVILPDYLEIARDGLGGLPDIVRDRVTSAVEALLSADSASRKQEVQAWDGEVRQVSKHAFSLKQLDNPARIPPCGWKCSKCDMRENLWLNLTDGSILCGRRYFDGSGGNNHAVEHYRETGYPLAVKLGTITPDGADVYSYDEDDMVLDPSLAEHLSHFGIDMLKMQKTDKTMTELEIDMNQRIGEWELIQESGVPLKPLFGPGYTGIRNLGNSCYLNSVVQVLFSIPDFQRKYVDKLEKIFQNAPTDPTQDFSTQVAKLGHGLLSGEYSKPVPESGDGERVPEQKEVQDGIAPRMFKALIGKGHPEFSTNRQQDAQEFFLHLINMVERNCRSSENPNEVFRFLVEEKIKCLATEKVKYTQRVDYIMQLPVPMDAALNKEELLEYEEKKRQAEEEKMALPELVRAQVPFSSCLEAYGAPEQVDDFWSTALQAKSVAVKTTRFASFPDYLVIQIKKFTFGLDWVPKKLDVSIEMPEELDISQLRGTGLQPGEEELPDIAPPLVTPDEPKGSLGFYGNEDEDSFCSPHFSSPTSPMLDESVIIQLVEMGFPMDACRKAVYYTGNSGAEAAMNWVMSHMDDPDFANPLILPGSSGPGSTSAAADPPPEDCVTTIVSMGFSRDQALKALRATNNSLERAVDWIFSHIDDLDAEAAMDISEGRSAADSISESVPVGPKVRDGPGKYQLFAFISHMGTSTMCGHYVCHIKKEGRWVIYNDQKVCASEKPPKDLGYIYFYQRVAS

No constants are given. Whether binding was seen depends on the method and setting. Binding seen in cells or lysates may run through a third protein. Some entries that bind do so weakly or less than the wild type.

Consider “E3 ligase SYVN1, endogenous (from UniProt Q86TM6 1-617) (enzyme)”, for which the binding entry in assay [1] is “binds”.

Consider “Flag-SYVN1 (from UniProt Q86TM6 1-617) (enzyme)”, for which, in assay [2], the binding entry was “binds”. “Myc-IMPDH2 (from UniProt P12268 1-514) (enzyme)”: in assay [3], the binding entry was “binds”. For “inosine monophosphate dehydrogenase 2 (IMPDH2), endogenous (from UniProt P12268 1-514) (enzyme)”, in assay [4], the binding entry was “binds”.

Source of the values: paper PMC13168492.
